According to PubChem BioAssay AID488837 (National Center for Advancing Translational Sciences (NCATS), 2010):
Out of some 330,000 compounds screened, about 20 (0.006%) were called active. The inconclusive results got no clear call from the source; some entries with a clear call stand among them for comparison. The call rests on the fitted dose curve; in most records, active means well fitted inhibition curve with a large enough effect; inconclusive means small, poorly fitted or top-dose-only effect, or effect the other way; inactive means flat fitted curve, though single readings scatter. Where the call is inconclusive, the potency comes from a doubtful curve fit.

By UniProt entry, the sequences of proteins in these tests, tags left out. Where a name states a change or a piece, a line headed by the entry shows the natural chain unless it says otherwise.
UniProt O00167: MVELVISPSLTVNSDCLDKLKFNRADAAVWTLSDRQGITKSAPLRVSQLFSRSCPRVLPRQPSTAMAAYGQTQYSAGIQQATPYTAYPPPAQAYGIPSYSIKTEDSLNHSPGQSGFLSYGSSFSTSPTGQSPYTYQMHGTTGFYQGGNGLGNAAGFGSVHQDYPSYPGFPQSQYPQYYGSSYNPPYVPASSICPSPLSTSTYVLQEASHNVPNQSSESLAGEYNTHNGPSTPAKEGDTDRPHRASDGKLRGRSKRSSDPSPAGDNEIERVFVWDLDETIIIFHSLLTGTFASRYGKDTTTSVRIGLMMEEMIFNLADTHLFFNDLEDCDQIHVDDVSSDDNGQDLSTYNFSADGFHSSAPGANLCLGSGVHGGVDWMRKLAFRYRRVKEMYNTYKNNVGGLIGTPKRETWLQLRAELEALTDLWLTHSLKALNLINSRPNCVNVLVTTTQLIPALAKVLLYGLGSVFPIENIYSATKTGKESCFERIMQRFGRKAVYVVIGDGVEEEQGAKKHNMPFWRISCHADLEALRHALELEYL

The compounds below were run against Protein phosphatase EYA2 (Homo sapiens) (UniProt O00167) (assay: qHTS Assay for Inhibitors of the Phosphatase Activity of Eya2). Settings: recombinant Eya2, OMFP fluorescence dephosphorylation (OMFP is methylfluorescein phosphate); activity, negative = inhibition: at 76.9 µM (top of the series) unless noted.
In short: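 Eya2 protein (added as 0.2 uM solution) was preincubated with compound for 10 min at ambient temperature in 50 mM HEPES pH 7.5, 50 mM NaCl, 5 uM MgCl2, 0.05% BSA, 1 mM DTT. OMFP (added at 50 uM) then reacted 10 min; fluorescence read at 485/525 nm.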
On the % scale 0 is the no-effect control and ±100 the full control effect; potency means the concentration at half of the fitted maximal effect.

SMILES	Potency	activity, negative = inhibition
Nc1nonc1-n1nnc(C(=O)N/N=C/c2ccccc2F)c1-c1cccs1	inconclusive: 89.1 µM [inhibitor, single point]	–
Cc1cc(C)c(NC(=O)CCCCCNC2CCCCC2)c(C)c1	inconclusive: 35.5 µM [inhibitor, partial curve]	–
Cc1ccc(NC(=O)CCC(=O)OCC(=O)c2ccc(Oc3ccc([N+](=O)[O-])cc3)cc2)cc1C	inconclusive: 89.1 µM [inhibitor, partial curve, poor fit]	–
CCN(CC)S(=O)(=O)c1ccc2oc(C(=O)N3CCCCCC3)c(C)c2c1	inconclusive: 79.4 µM [inhibitor, single point]	–
O=S(=O)(Cc1ccccc1)Nc1cccc(Br)c1	inconclusive: 100 µM [inhibitor, single point]	–
CCc1onc(C)c1C(=O)Nc1ccc(N2CCOCC2)cc1	inconclusive: 251 µM [inhibitor, partial curve, poor fit]	–
COc1ccc(/C=C2\Cc3ccccc3C2=O)cc1OC	inconclusive: 112 µM [inhibitor, single point]	–
Cc1[nH]n(-c2ccccc2)c(=O)c1C=Nc1ccc(S(=O)(=O)N=C(N)N)cc1	inconclusive: 20 µM [inhibitor, single point]	–
Cc1cccc(-c2n[nH]c(=S)n2Cc2ccccc2)c1	inactive	–
Cc1nnc(SCC(=O)Nc2ccccc2F)n1Cc1ccco1	inconclusive: 25.1 µM [inhibitor, single point]	–
CSc1sc(C(=O)NN)c2c1C1(CCC2)SCCS1	inconclusive: 89.1 µM [inhibitor, single point]	–
O=C(NCCCn1ccnc1)c1cc(Br)c(Br)s1	inconclusive: 562 µM [inhibitor, partial curve, poor fit]	–
O=C1CCC(=O)N1c1ccc(NC2CCN(Cc3ccccc3)CC2)c([N+](=O)[O-])c1	inconclusive: 79.4 µM [inhibitor, partial curve]	–
Cc1nc(C)c(/C(O)=C\c2nc3ccc([N+](=O)[O-])cc3oc2=O)o1	inconclusive: 89.1 µM [inhibitor, single point]	–
CC(C)(C)OC(=O)N1CCC[C@H]1C(=O)N/N=C/c1ccc2ncccc2c1	inconclusive: 25.1 µM [inhibitor, single point]	–
CCOc1ccccc1NS(=O)(=O)c1ccc2oc(=O)ccc2c1	inconclusive: 100 µM [inhibitor, single point]	–
CCn1cc(CNC(=O)C2C3CCC(C3)C2C(=O)O)cn1 (stereo unspecified)	inconclusive: 22.4 µM [inhibitor, single point]	–
COc1ccc(OC)c(-c2csc(NC(=O)CSCC(=O)Nc3cc(C)on3)n2)c1	inconclusive: 100 µM [inhibitor, single point]	–
Clc1ccc(-c2ccc(CN3CCCCC3)o2)cc1	inconclusive: 1410 µM [inhibitor, partial curve, poor fit]	–
Cc1cc(/C(N)=N/OC(=O)c2cccc(Cl)c2)no1	inconclusive: 200 µM [inhibitor, single point]	–
CCc1cc2c(CN3CCN(C)CC3)cc(=O)oc2cc1O	inactive	–
CC(=O)N1CCN(C(=O)CN2C(=O)NC(C)(c3ccc4ccccc4c3)C2=O)CC1 (stereo unspecified)	inactive	–
COc1ccc(N(CC(=O)N/N=C/c2ccc(OC)cc2OC)S(=O)(=O)c2ccccc2)cc1	inconclusive: 22.4 µM [inhibitor, single point]	–
Cc1ccccc1NC(=O)C(C)c1ccc(-c2ccccc2)c(F)c1 (stereo unspecified)	inconclusive: 89.1 µM [inhibitor, single point]	–

SMILES	Potency	activity, negative = inhibition
O=C(CCS(=O)(=O)c1cccc2nonc12)NC1CCCCCC1	inactive	–
O=C(COc1ccc(/C=N/NS(=O)(=O)c2ccccc2)cc1)N1CCOCC1	inconclusive: 25.1 µM [inhibitor, single point]	–
CCN(CC(=O)Nc1cc(Cl)ccc1C)C(=O)C1COc2ccccc2O1 (stereo unspecified)	inactive	–
Cc1ccc(NS(=O)(=O)c2ccc(C(=O)N3CC(C)CC(C)C3)cc2)cc1 (stereo unspecified)	inactive	–
CCCCCCNC(=O)Cc1c(O)c2ccccc2[nH]c1=O	inactive	–
O=C(N/N=C\c1ccc(Sc2ccccn2)o1)c1cccc(Br)c1	active: 3.16 µM	–
COc1ccc(OC)c(/C(C)=N/Nc2ccc(C(=O)O)cc2)c1	inactive	–
CCCN(CC1CC1)C(=S)NC(=O)c1cc(Br)ccc1Cl	inactive	–
O=C1c2cccc3c(O)ccc(c23)C(=O)N1c1ccc(Cl)cc1	inconclusive: 31.6 µM [activator, partial curve]	–
N#CC1=C(N)C(C#N)(C#N)[C@H](c2c(F)cccc2F)[C@H]2CC3(CC=C12)OCCO3	inconclusive: 31.6 µM [activator, partial curve]	–
Cc1cccc(N2C(=O)C(O)=C(C(=O)c3cccs3)C2c2ccc(F)cc2)n1 (stereo unspecified)	inconclusive: 89.1 µM [inhibitor, single point]	–
CC(Oc1ccc(F)cc1)C(=O)Nc1ccccc1C(=O)NC1CC1 (stereo unspecified)	inconclusive: 50.1 µM [inhibitor, partial curve]	–
O=C(OCCN1C(=O)c2cccc3c(N4CCOCC4)ccc(c23)C1=O)c1ccccc1Cl	–	inconclusive: 76.4% [activator]
COC(=O)c1ccc(NC(=O)C(=O)c2cccn2C)cc1	inconclusive: 20 µM [inhibitor, single point]	–
CC(=O)N(C)c1ccc(NC(=S)NC(=O)/C=C/c2ccco2)cc1	inactive	–
O=c1c2c3nc4ccccc4nc3n(/N=C/c3ccccn3)c2ncn1-c1ccccc1	inconclusive: 89.1 µM [inhibitor, single point]	–
O=C(CCCCCN1C(=O)c2cccc3cccc(c23)C1=O)NCc1ccco1	inconclusive: 100 µM [inhibitor, single point]	–
Cc1ccccc1NC(=O)CSc1n[nH]c(-c2ccco2)n1	inactive	–
COC(=O)c1ccccc1N/C=C/C(=O)c1ccc(Br)cc1	inactive	–
COc1cc2ccccc2cc1C(=O)Nc1ccc(N2CCOCC2)cc1	inconclusive: 25.1 µM [inhibitor, partial curve]	–
Cc1ccc(S(=O)(=O)N2CCC(C(=O)NN3CCCCC3)CC2)cc1	inactive	–
O=C(COC(=O)/C=C/c1cccc([N+](=O)[O-])c1)NCc1ccc2c(c1)OCO2	inconclusive: 79.4 µM [inhibitor, single point]	–
CC(=O)/C(=N/Nc1ccccc1C)N1CCOCC1	inconclusive: 112 µM [inhibitor, single point]	–
Cc1c(NC(=O)CN2C(=O)C(=O)N(Cc3ccccc3)C2=O)c(=O)n(-c2ccccc2)n1C	inconclusive: 112 µM [inhibitor, partial curve]	–

Gathered by group, the entries above with a COOH group
SMILES	Potency	activity, negative = inhibition
CCn1cc(CNC(=O)C2C3CCC(C3)C2C(=O)O)cn1 (stereo unspecified)	inconclusive: 22.4 µM [inhibitor, single point]	–
COc1ccc(OC)c(/C(C)=N/Nc2ccc(C(=O)O)cc2)c1	inactive	–

Following part.

SMILES	Potency	activity, negative = inhibition
CCN(CC)c1ccc(/C=C(\C#N)C(=O)c2ccc(Br)cc2)cc1	inconclusive: 25.1 µM [activator, partial curve]	–
CC(C)NC(=O)Cn1c(=O)cnc2ccccc21	inactive	–
O=C(O)/C=C/C(=O)Nc1ccc2nccnc2c1	inconclusive: 20 µM [inhibitor, partial curve, poor fit]	–
Cc1c2cnn(CC(=O)NCCCN3CCCCC3)c(=O)c2c(C)n1Cc1ccccc1	inconclusive: 22.4 µM [inhibitor, single point]	–
COc1ccc(C(=O)O)cc1S(=O)(=O)NCCc1ccccn1	inactive	–
O=C(CSc1nnc(NC(=O)c2ccco2)s1)Nc1ccc2c(c1)OCCO2	inconclusive: 25.1 µM [inhibitor, single point]	–
CC(OC(=O)c1cccs1)C(=O)NCc1ccco1 (stereo unspecified)	inactive	–
Cc1cc2c(ncn2C(C)C)c(N)c1C	inconclusive: 79.4 µM [inhibitor, single point]	–
O=C(CCCCCNC(=O)c1ccccc1)N/N=C/c1ccc(O)cc1O	inactive	–
COc1ccc2[nH]c(O)c(N=NC(=O)c3ccc(NS(=O)(=O)c4cccs4)cc3)c2c1	inconclusive: 20 µM [inhibitor, single point]	–
COc1cc(C)nc(-c2csc(C)n2)n1	inconclusive: 112 µM [inhibitor, partial curve, poor fit]	–
Cc1c2cc(O)c(=O)cc-2oc2cc(O)c(O)cc12	–	inconclusive: 122% [activator]
CC(Cc1c[nH]c2ccccc12)C(=O)O (stereo unspecified)	inactive	–
Cc1cc(-c2nnc(-c3cccc(Cl)c3)o2)no1	inconclusive: 20 µM [inhibitor, single point]	–
COc1ccc(C)cc1N(CC(=O)NCCSCc1ccco1)S(=O)(=O)c1ccc(C)cc1	inconclusive: 35.5 µM [inhibitor, partial curve]	–
Cc1c(C(=O)N2CCN(c3ccc([N+](=O)[O-])cc3)CC2)sc2ncn(CC(=O)N3CCOCC3)c(=O)c12	inactive	–
Cc1[nH]c2ccccc2c1CN1CCC(Cc2ccccc2)CC1	inactive	–
CC(CCc1ccccc1)NC(=O)COC(=O)c1cccc(N(C)C)c1 (stereo unspecified)	inconclusive: 2000 µM [inhibitor, partial curve, poor fit]	–
COc1ccc(C(c2nnnn2C2CCCC2)N2CCN(C(=O)c3ccco3)CC2)cc1OC (stereo unspecified)	inconclusive: 22.4 µM [inhibitor, single point]	–
O=C(C(=O)N1CCCC1)c1c(-c2ccccc2)[nH]c2ccccc12	inconclusive: 56.2 µM [inhibitor, partial curve, poor fit]	–
FCCCOc1ccc(-c2nccc(-c3ccc(Cl)cc3)n2)cc1	inactive	–
CCC1=NN2C(=N)/C(=C/c3cc(C)n(Cc4ccccc4)c3C)C(=O)N=C2S1	inactive	–
Cn1c(N)c(C(=O)COC(=O)c2cc(-c3ccco3)nc3ccccc23)c(=O)n(C)c1=O	inactive	–
